{"source": "PubChem BioAssay AID504362", "about": "(National Center for Advancing Translational Sciences (NCATS), 2011)", "note": "Inconclusive results, whose numbers are uncertain, are shown with a selection of clear calls. Where the call is inconclusive, the potency comes from a doubtful curve fit. Active and inactive are the calls of the source. Calls come from the whole dose curve; as a rule, active = well fitted activation curve with a large enough effect; inconclusive = small, poorly fitted or top-dose-only effect; inactive = flat fitted curve, though single readings scatter.", "data": [{"experiment": "qHTS Assay for Identifying a Potential Treatment of Ataxia-Telangiectasia: SAR for Probe", "conditions": "[…] A-T fibroblasts, NCS-induced pKAP1 AlphaLISA; series mostly up to 76.9 µM", "description": "NIH Chemical Genomics Center [NCGC] NIH Molecular Libraries Probe Centers Network [MLPCN] MLPCN Grant: MH089030-01 Assay Submitter (PI): Wei Zheng and Yosef Shiloh Ataxia-telangiectasia (A-T) is a devastating and progressive disease for which, there is no cure. Although A-T is a multisystem disease, it is stereotyped characterized by its neurological symptoms such as truncal ataxia, due to cerebellar cortical degeneration of the Purkinje and granule cells. Other symptoms of A-T are telangiectasias (dilated blood vessels), primary immunodeficiency, marked sensitivity to ionizing radiation (IR), chromosomal instability and predisposition to cancer. The underlying genetic cause of A-T is null mutations in the ATM (A-T mutated) gene. ATM is a nuclear serine/threonine kinase that functions as a master regulator of the cellular responses to double strand breaks (DSBs) in the DNA. Upon activation by DSBs, ATM phosphorylates a plethora of downstream targets, including KAP-1 on […]. KAP-1 phosphorylation occurs shortly in response to DSBs and mediates global chromatin relaxation, which facilitates DSB repair. To screen for small molecules that will compensate for the loss of ATM in cells derived from A-T patients, we monitored KAP-1 phosphorylation as a readout for ATM-like activity using an AlphaLISA assay. This set of data is for analogs of the probe molecule in the primary screening assay.\nqHTS Assay Protocol: Step,Parameter,Value,Description 1. Cell Plating, 3 ul, 500 cells/well in OPTI-MEM, 1% FBS, 1% Pen/Strep 2. Incubation, 16-24 hr, 37C, 5% CO2, 95% humidity 3. Library compounds, 23 nl, 76.7 - 0.61uM dilution series final concentration 4. Incubation, 60 min, 37C, 5% CO2, 95% humidity 5. Reagent, 1 ul, 1600 ng/ml NCS in PBS + 0.05% BSA + 0.005% Tween 20 6. Incubation, 30 min, 37C, 5% CO2, 95% humidity 7. Reagent, 1 ul, Premixed detection reagents and lysis buffer 8. Reagent, 1 ul, 0.6% Antifoam A 9. Incubation, 6 hr, 25C, 95% humidity 10. Readout, EnVision, EnVision plate reader. AlphaScreen 1536-well protocol Cells were plated using medium-binding white solid-bottom tissue culture treated Kalypsys plates. Multidrop dispense of 3 uL of […] (hTERT immortalized A-T patient fibroblast cells). Detection reagent and lysis buffer was 3.75nM Rab-a-pKAP1 antibody bound to 75 ng/ul AlphaScreen SA donor bead, 3.75 nM Biot-M-a-KAP1 antibody bound to AlphaLISA protein A acceptor bead, 0.5x protease inhibitor cocktail and 0.25x PerkinElmer lysis buffer. EnVision protocol for 1536-well AlphaScreen read (30ms excitation, 100ms read), about 10 min/plate.", "values": [{"molecule": "COc1ccccc1C(=O)/C=C/c1ccccc1", "Potency": "inconclusive: 46.3 µM [activator, single point]"}, {"molecule": "CC(C)=C/C=C/C(=O)c1ccccc1O", "Potency": "inactive"}, {"molecule": "COCOc1cc(O)c(C(=O)/C=C/c2ccccc2)c2c1C=CC(C)(C)O2", "Potency": "inconclusive: 20.7 µM [activator, full curve]"}, {"molecule": "O=C(/C=C/c1ccccc1)c1ccccc1O", "Potency": "inconclusive: 46.3 µM [activator, single point]"}, {"molecule": "CC1(C)C=Cc2c(ccc(C(=O)/C=C/c3ccccc3)c2O)O1", "Potency": "inconclusive: 51.9 µM [activator, single point]"}, {"molecule": "O=C(/C=C/c1ccccc1)n1cnc2ccccc21", "Potency": "inactive"}, {"molecule": "CN1CCN(c2nc(C3=C(c4c[nH]c5ccccc45)C(=O)NC3=O)c3ccccc3n2)CC1", "Potency": "inactive"}, {"molecule": "COc1cc(OC)c(C(=O)/C=C/c2ccccc2)c2c1C=CC(C)(C)O2", "Potency": "inconclusive: 6.54 µM [activator, partial curve, poor fit]"}, {"molecule": "COc1cc(/C=C/C(=O)c2ccccc2)cc(OC)c1OC", "Potency": "active: 46.3 µM"}, {"molecule": "COc1ccc2c(c1C(=O)/C=C/c1ccccc1)OC(C)(C)C=C2", "Potency": "inconclusive: 36.8 µM [activator, single point]"}]}]}
